Results as given in article PMC5175153.
Results are given in words; binding and its absence hold for the method and conditions named. In cells and extracts the contact can be indirect.

Amino acid sequences for entries named in this document (tags omitted).
UniProt O14867: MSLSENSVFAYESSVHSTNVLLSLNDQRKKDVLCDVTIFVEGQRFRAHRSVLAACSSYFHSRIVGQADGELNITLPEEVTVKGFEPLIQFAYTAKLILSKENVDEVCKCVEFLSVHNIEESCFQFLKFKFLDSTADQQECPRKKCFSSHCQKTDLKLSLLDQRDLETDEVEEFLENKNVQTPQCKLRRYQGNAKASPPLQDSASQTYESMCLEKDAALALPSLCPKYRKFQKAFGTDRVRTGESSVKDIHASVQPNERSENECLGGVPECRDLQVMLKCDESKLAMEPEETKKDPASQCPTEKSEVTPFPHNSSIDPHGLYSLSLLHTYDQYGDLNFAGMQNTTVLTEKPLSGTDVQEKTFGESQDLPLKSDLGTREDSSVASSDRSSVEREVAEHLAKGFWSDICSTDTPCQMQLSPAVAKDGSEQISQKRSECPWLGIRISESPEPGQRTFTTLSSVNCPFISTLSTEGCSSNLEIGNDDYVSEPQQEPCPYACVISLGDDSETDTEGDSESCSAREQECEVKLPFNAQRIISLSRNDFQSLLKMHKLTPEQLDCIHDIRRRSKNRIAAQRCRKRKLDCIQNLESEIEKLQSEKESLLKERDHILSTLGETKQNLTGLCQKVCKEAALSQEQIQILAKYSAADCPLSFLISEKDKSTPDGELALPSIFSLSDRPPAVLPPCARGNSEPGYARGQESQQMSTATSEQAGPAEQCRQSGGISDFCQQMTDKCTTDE
UniProt P08047: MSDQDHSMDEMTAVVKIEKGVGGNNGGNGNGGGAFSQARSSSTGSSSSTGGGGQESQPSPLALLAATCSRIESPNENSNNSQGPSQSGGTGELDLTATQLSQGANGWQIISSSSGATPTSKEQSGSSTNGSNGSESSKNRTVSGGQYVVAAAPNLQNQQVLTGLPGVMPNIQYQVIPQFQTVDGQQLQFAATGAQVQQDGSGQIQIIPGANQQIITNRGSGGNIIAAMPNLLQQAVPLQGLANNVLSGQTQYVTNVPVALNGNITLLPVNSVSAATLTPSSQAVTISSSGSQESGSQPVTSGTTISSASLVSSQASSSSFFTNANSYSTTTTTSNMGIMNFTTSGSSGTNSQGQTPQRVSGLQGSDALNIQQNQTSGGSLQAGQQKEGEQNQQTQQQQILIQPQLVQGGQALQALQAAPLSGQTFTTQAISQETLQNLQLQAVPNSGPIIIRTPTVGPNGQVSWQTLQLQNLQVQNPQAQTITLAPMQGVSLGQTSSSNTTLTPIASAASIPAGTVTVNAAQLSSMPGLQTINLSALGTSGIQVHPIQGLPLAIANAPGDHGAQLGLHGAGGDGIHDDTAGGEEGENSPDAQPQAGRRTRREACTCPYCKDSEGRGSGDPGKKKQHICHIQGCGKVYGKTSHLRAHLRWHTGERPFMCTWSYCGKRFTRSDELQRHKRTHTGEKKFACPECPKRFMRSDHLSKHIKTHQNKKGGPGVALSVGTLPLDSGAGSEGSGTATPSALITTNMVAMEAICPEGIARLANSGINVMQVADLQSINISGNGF

Biological target: BTB and CNC homology 1 (BACH1), endogenous (human (endogenous in GBM cells)) (UniProt O14867)
Test: co-IP; endogenous proteins; lysates from GBM cells incubated with anti-IgG, anti-p53, anti-SP1 or anti-BACH1 antibody overnight at 4 °C, protein A/G beads; Western blot with anti-p53, anti-SP1 and anti-BACH1

SP1 (endogenous) (from UniProt P08047 1-785)
binding: no binding
